Assay results from PMC5500890.
These are yes or no findings as the source states them, for the method shown.

Target: Escherichia coli apolipoprotein N-acyl transferase (Lnt) (E. coli K-12) (UniProt P23930)
Assay: crystal structure; apo Ec-Lnt crystallized in the presence of 0.3% (w/v) NTM, hanging drop, 16 °C; refined at 2.6 Å; both purified

Which binding does the source give for “Escherichia coli apolipoprotein N-acyl transferase (Lnt) (from UniProt P23930 1-512) (enzyme)” here?
The binding was “no binding”.
